Data: the supplement of paper PMC10849652
The other results are listed elsewhere or left out.

By UniProt entry, the sequences of proteins in these tests, tags left out. Where a name states a change or a piece, a line headed by the entry shows the natural chain unless it says otherwise.
UniProt O43464: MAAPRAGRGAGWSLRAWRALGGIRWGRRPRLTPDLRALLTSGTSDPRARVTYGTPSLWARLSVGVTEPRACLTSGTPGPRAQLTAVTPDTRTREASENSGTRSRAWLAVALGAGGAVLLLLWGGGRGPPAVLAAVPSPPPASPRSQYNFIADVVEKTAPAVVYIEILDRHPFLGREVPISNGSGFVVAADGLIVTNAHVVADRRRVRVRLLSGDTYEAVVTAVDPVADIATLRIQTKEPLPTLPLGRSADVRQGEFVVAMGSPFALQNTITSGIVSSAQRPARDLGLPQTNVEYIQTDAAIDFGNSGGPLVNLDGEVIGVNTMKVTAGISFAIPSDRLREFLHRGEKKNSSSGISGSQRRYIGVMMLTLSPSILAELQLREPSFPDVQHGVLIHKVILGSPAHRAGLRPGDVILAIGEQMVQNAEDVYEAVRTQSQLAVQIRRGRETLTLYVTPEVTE
UniProt O15347: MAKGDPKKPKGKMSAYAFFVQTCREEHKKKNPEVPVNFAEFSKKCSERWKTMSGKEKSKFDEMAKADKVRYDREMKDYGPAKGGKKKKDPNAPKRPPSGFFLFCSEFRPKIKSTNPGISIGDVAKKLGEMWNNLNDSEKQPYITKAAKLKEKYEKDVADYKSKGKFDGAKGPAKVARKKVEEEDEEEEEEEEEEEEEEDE
UniProt P51991: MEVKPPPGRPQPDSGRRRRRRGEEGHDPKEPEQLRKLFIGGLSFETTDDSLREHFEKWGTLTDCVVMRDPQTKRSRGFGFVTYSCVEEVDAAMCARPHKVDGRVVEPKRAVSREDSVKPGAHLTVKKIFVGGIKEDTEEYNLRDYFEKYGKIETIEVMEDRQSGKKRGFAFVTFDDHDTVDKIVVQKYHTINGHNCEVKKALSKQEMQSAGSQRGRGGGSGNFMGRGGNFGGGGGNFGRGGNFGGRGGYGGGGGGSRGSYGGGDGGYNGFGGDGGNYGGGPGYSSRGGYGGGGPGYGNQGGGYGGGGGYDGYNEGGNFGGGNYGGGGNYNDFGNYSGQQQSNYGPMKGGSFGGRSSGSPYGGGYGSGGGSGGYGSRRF
UniProt P26583: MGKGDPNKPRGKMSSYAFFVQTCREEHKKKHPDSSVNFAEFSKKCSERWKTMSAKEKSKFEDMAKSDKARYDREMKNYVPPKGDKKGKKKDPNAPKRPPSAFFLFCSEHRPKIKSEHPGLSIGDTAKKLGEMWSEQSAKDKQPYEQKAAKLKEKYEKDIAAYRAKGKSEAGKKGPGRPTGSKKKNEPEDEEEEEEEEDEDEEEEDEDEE
UniProt Q2TB90: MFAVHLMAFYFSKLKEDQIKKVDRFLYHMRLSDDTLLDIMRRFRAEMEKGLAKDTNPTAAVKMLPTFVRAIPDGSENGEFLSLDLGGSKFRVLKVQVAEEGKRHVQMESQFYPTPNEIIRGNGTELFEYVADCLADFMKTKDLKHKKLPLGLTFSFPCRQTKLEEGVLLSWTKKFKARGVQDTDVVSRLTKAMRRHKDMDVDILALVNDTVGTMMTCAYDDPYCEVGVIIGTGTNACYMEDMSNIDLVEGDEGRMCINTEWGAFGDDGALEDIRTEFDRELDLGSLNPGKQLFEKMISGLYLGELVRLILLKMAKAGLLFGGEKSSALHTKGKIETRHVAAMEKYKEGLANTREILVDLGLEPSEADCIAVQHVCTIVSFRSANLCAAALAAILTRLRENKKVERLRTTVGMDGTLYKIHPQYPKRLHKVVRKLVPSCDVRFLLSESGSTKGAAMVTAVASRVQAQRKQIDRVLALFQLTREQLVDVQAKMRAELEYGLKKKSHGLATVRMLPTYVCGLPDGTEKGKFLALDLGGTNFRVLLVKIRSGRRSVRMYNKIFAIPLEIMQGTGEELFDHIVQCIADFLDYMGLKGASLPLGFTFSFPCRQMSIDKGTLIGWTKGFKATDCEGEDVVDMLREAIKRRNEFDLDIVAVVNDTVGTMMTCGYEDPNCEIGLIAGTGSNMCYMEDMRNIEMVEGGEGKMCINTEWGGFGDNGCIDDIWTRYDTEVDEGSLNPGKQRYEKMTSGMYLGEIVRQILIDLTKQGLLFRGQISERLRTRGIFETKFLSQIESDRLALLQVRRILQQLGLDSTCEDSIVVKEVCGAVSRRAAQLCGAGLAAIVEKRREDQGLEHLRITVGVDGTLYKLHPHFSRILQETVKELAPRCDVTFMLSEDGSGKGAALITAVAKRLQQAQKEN
UniProt Q9BTY7: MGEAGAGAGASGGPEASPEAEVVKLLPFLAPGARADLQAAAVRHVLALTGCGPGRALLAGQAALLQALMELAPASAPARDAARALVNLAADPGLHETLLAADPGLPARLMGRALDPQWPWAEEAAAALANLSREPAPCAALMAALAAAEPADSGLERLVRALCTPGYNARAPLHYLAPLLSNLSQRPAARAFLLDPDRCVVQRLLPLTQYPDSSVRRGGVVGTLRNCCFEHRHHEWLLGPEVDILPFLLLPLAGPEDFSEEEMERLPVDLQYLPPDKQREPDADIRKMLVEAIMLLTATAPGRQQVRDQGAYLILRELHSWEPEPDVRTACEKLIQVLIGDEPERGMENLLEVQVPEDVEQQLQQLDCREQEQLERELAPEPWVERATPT
UniProt O75146: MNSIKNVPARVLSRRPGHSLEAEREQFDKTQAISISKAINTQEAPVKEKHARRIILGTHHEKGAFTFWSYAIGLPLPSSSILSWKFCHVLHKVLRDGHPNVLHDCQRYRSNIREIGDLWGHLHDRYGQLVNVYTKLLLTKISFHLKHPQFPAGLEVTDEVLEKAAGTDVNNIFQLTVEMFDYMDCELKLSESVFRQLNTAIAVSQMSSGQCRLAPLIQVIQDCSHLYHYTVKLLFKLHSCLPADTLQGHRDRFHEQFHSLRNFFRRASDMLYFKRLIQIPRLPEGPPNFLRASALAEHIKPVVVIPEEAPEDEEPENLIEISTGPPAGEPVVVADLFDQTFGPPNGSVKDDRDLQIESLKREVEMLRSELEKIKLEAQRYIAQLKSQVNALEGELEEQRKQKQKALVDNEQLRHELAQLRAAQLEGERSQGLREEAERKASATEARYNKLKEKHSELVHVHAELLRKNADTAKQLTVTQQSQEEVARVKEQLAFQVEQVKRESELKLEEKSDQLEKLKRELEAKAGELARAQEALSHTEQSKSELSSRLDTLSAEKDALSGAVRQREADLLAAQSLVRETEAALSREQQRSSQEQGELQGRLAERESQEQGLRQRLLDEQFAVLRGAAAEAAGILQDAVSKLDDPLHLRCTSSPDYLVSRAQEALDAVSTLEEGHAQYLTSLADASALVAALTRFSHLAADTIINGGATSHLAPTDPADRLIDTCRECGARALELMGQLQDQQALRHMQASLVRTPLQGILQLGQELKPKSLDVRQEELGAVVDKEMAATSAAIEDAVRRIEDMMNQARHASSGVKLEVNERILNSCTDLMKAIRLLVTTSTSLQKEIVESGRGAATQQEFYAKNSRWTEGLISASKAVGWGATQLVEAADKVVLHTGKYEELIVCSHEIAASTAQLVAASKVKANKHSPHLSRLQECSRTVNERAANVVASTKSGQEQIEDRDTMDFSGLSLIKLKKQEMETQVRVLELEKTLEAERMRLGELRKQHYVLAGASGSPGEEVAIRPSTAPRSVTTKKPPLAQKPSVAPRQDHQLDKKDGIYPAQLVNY
UniProt Q9NSE4: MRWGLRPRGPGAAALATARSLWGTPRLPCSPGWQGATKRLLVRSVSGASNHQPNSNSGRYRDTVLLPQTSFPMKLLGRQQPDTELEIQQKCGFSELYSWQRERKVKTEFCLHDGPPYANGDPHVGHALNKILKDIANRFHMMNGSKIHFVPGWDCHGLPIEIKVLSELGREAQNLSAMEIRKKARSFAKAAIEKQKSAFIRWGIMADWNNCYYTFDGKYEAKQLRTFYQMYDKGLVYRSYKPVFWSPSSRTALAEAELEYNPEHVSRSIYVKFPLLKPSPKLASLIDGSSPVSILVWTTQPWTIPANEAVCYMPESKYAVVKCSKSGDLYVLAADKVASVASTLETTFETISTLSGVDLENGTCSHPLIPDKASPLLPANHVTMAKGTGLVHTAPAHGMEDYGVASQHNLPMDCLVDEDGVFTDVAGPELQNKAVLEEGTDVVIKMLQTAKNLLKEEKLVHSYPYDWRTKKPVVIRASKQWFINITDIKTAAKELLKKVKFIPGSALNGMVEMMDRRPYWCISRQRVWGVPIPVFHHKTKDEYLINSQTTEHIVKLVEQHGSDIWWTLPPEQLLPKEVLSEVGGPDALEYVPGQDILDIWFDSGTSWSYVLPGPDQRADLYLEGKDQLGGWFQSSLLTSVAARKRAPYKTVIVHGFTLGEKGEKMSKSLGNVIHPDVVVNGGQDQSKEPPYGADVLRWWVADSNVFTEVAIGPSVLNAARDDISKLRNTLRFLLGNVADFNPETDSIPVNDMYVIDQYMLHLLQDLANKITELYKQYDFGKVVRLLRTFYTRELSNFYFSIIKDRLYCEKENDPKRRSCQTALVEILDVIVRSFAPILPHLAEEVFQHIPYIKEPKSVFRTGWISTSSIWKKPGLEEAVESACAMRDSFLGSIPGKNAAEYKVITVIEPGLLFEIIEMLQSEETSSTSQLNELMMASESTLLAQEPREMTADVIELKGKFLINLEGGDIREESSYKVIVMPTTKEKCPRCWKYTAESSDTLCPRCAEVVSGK
UniProt Q9Y547: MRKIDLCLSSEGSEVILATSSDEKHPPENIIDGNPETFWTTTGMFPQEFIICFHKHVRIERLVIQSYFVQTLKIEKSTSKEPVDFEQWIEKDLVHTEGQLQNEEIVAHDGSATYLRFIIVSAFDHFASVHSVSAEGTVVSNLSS

How the values were obtained:
Experiment in all cases: log2 fold change, soluble protein after heating vs DMSO (PISA); higher = thermal stabilisation; K562 cells, 10 uM, 30 min; active = over 0.2 and 3.5 SD of the protein, either way, in both replicates (recomputed)
[1] = compound: C1=CC=C(C=C1)[C@H](COC2=CC3=C(C=C2)NC(=O)N3)NC(=O)C4=CC=CN(C4=O)CC5=CC(=C(C=C5)F)F
Procedure, shortened: (§1)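 Soluble protein was defined as the supernatant after 21,000xg for 90 min. It came from K562 cells at 2×10^6 cells/mL given 10 μM compound for 30 min, heated in aliquots for 3 min across 48°C-58°C, pooled, and extracted in PBS with 0.5% NP-40 at 4°C, and was quantified by TMTpro 16plex LC-MS/MS with equalised channel sums. Thermal stability against control samples, from duplicates, is reported as log2 fold change.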

[2] = compound: CC1=C(SC2=C1C(=N[C@H](C3=NN=C(N32)C)CC(=O)N)C4=CC=C(C=C4)Cl)C
Procedure, shortened: as §1

[3] = compound: CC1=C2C(=CC=C1)N=C(N(C2=O)C3=CC=CC=C3C)CN4C=NC5=C(N=CN=C54)N
Procedure, shortened: as §1

[4] = compound: Cc1sc2c(c1C)C(c1ccc(Cl)cc1)=N[C@@H](CC(=O)OC(C)(C)C)c1nnc(C)n1-2
Procedure, shortened: as §1

[5] = compound: c1ccc([C@@H]2C[C@H]2NC2CCNCC2)cc1
Procedure, shortened: as §1

Measured: log2 fold change

HTRA2 (UniProt O43464)
inactive: [1] 0.03 | [2] 0.01 | [3] 0.05 | [4] -0.024 | [5] 0.016

HMGB3 (UniProt O15347)
inactive: [1] -0.005 | [2] 0.022 | [3] -0.03 | [4] -0.055 | [5] -0.033

HNRNPA3 (UniProt P51991)
inactive: [1] 0.18 | [2] -0.378 | [3] -0.179 | [4] 0.102 | [5] 0.02

HMGB2 (UniProt P26583)
inactive: [1] 0.035 | [2] 0.029 | [3] -0.015 | [4] -0.02 | [5] 0.006

HKDC1 (UniProt Q2TB90)
inactive: [1] -0.015 | [2] 0.056 | [3] 0.091 | [4] -0.033 | [5] -0.02

HYOU1, A0A494C039
inactive: [1] -0.057 | [2] 0.103 | [3] -0.131 | [4] -0.012 | [5] 0.117

HGH1 (UniProt Q9BTY7)
inactive: [1] -0.042 | [2] -0.021 | [3] 0.07 | [4] 0.026 | [5] -0.162

HIP1R (UniProt O75146)
inactive: [1] -0.038 | [2] 0.061 | [3] 0.1 | [4] -0.031 | [5] -0.02

IARS2 (UniProt Q9NSE4)
inactive: [1] 0.019 | [2] -0.017 | [3] -0.002 | [4] -0.002 | [5] 0.03

HSPB11 (UniProt Q9Y547)
inactive: [1] -0.002 | [2] 0.139 | [3] 0.044 | [4] 0.015 | [5] 0.035
